Assay results published in the supplement of paper PMC8104966.
This is one part of the list. This data set is noisy: repeats of one test often differ as much as different tests do.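 Fusion between ACE2-bearing and full-length-spike-bearing U2OS cells was measured by imaging as the percentage of nuclei with both cell types' fluorescent markers. An inhibitory hit is a non-toxic compound whose fusion z-score is below -3, more than three standard deviations beneath the plate's DMSO wells.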

Each compound was assayed on U2OS ACE2 x SARS-CoV-2 spike co-culture (assay: cell-cell fusion (fraction fused) z-score vs plate DMSO control; higher = more fusion). Details: 30 µM; 5 h; toxicity class: non-toxic, passed QC.

Compound	cell-cell fusion (z-score)
O=c1c(O)c(-c2ccc(O)cc2O)oc2cc(O)cc(O)c12	inactive: 1.85
CN(Cc1cnc2nc(N)nc(N)c2n1)c1ccc(C(=O)NC(CCC(=O)O)C(=O)O)cc1 (racemic)	inactive: -0.458
COc1cc(OC)cc(-c2cc3cnc(N)nc3nc2NC(=O)NC(C)(C)C)c1	inactive: 3.06
CC1=CC(=O)C2C(C)(C)CCC[C@]2(C)[C@@]1(O)CCc1ccoc1 (stereo not given in full)	inactive: 1.92
CCOc1cc(C(=O)Nc2ccc(Cl)c(-c3nc4ccccc4[nH]3)c2)cc(OCC)c1OCC	inactive: -0.496
CC(=O)c1cccc(N[C@H]2[C@H](N)[C@@](NC(=O)N(C)C)([C@H](C)O)[C@@](C)(O)[C@@]2(O)COC(=O)c2c(C)cccc2O)c1 [Pactamycin]	inactive: 1.03
CN(CCCCCCCCCCN(C)C(=O)Oc1cccc([N+](C)(C)C)c1)C(=O)Oc1cccc([N+](C)(C)C)c1.[Br-].[Br-] [Demecarium bromide]	inactive: 1.49
Cc1c(C(N)=O)cc([N+](=O)[O-])cc1[N+](=O)[O-]	inactive: 2.24
CCOC(=O)CC(=O)N1CCSC1COc1ccccc1OC (stereo not given)	inactive: 1.3
O.O.O=C(Nc1ccc2c(c1)CCN(Cc1ncn[nH]1)C2)c1ccccc1-c1ccc(C(F)(F)F)cc1	inactive: 2.02
Cl.NCCS [Cysteamine HCl]	inactive: 2.47
Cl.NCCS [Cysteamine hydrochloride]	inactive: 3.35
CC1(C)C(=O)[C@@H]2O[C@@H]2[C@@]2(C)C1C[C@@H](O)[C@]1(C)C2CC[C@@]2(C)[C@H](c3ccoc3)OC(=O)C3OC321 (stereo partly drawn) [1,2alpha-EPOXYDEACETOXYDIHYDROGEDUNIN]	inactive: 1.34
CC[C@H]1OC(=O)[C@H](C)[C@@H](O[C@H]2C[C@@](C)(OC)[C@@H](O)[C@H](C)O2)[C@H](C)[C@@H](O[C@@H]2O[C@H](C)C[C@H](N(C)C)[C@H]2O)[C@](C)(O)C[C@@H](C)C(=O)[C@H](C)[C@@H](O)[C@]1(C)O	inactive: 0.394
CNC(=O)Oc1cccc2ccccc12	inactive: -0.374
CCN(CC)C(=O)C1(c2ccccc2)CC1CN (stereo not given) [Levomilnacipran]	inactive: 1.29
COC(=O)N/N=C/c1c[n+]([O-])c2ccccc2[n+]1[O-]	inactive: 3.12
CC(C)[C@H](N)C(=O)O [L-Valine]	inactive: 1.84
CC(C)[C@H](N)C(=O)O	inactive: 1
C[C@]12CCC(=O)C=C1C=CC1C2CC[C@@]2(C)C1CC[C@@]21CCC(=O)O1 (stereo not given in full)	inactive: 3.84
COc1c2ccoc2cc2oc(C)cc(=O)c12	inactive: 1.67
CCOc1nc2cccc(C(=O)O)c2n1Cc1ccc(-c2ccccc2-c2noc(=O)[nH]2)cc1 [Azilsartan]	inactive: 0.627

Compound	cell-cell fusion (z-score)
COCC(=O)NC/C=C/c1ccc2ncnc(Nc3ccc(Oc4ccc(C)nc4)c(C)c3)c2c1	inactive: -0.0204
N=C(N)NCCCCN.O=S(=O)(O)O [Agmatine sulfate]	inactive: 2.88
N=C(N)NCCCCN.O=S(=O)(O)O	inactive: 1.99
Nc1ccc(CCN2CCN(c3cccc(C(F)(F)F)c3)CC2)cc1	inactive: -1.3
CCN(CC)CCn1c(=O)c(Cc2ccc(OC)cc2)nc2ccccc21.Cl [Caroverine hydrochloride]	inactive: 2.67
COc1ccc(C(=O)c2ccccc2O)c(O)c1	inactive: 1.3
CC(C)[C@H](NC(=O)OCc1ccccc1)C(=O)N[C@H](C=O)Cc1ccccc1	inactive: 2.86
COc1cc(/C=C/c2ccc(O)cc2)cc(OC)c1	inactive: 2.95
Cl.Nc1c2c(nc3ccccc13)CCCC2.O [Tacrine hydrochloride hydrate]	inactive: 1.53
COc1cc2ncnc(Nc3cccc(Cl)c3)c2cc1OC [AG-1478 (Tyrphostin AG-1478)]	inactive: -2.48
CC[N+](C)(C)Cc1ccc(Br)cc1.Cc1ccc(S(=O)(=O)[O-])cc1	inactive: 2.65
O=C(O)[C@H](O)[C@@](O)(Cc1ccc(O)cc1)C(=O)O	inactive: 2.77
CC(C)OC(=O)OCOP(=O)(CO[C@H](C)Cn1cnc2c(N)ncnc21)OCOC(=O)OC(C)C.O=C(O)/C=C/C(=O)O [Tenofovir Disoproxil Fumarate]	inactive: 0.791
CC(=O)Oc1cc(C(F)(F)F)ccc1C(=O)O [Triflusal]	inactive: 0.728
CC(N/C(=N\C#N)Nc1ccncc1)C(C)(C)C (stereo not given) [Pinacidil]	inactive: 1.37
COc1ccc(/C=C/C(=O)O)cc1OC	inactive: 3.29
C[C@H]1CCN(C(=O)CC#N)C[C@@H]1N(C)c1ncnc2[nH]ccc12.O=C(O)CC(O)(CC(=O)O)C(=O)O	inactive: 2.66
C#CCn1c(=O)c2c(ncn2C)n(C)c1=O [3,7-Dimethyl-1-propargylxanthine]	inactive: 1.38
COc1ccc(-c2cc(=O)c3c(O)c(OC)c(OC)cc3o2)cc1O [Eupatorin]	inactive: 1.71
O=C(c1ccc2c(c1)OCCO2)N1CCCCC1	inactive: 0.0733
C[C@]12CC[C@H]3[C@@H](CC[C@@]45O[C@@H]4C(O)=C(C#N)C[C@]35C)[C@@H]1CC[C@@H]2O [Trilostane]	inactive: 1.92
C=C1C(N)CC2CC1C2(C)C.Cl (stereo not drawn) [3-AMINO-beta-PINENE]	inactive: 3.02

Compound	cell-cell fusion (z-score)
Cc1nnc(C(=O)NC(C)(C)c2nc(C(=O)NCc3ccc(F)cc3)c([O-])c(=O)n2C)o1.[K+] [Raltegravir potassium]	inactive: 1.98
CN(C/C=C/C#CC(C)(C)C)Cc1cccc2ccccc12.Cl [Terbinafine hydrochloride]	inactive: 2.83
Cc1ccccc1N1C(=O)c2cc(S(N)(=O)=O)c(Cl)cc2NC1C (stereo not given) [Metolazone]	inactive: 3.74
Cc1c(CCOc2ccc(C(=O)O)cc2)c2cc(Cl)ccc2n1C(c1ccccc1)c1ccccc1	inactive: 1.09
COc1ccccc1N1CCN(CCCNc2c(C)c(=O)n(C)c(=O)n2C)CC1 [Urapidil, 5-Methyl-]	inactive: -0.0275
CC(=O)O[C@H]1Cc2ccccc2N(C(N)=O)c2ccccc21 [Eslicarbazepine Acetate]	inactive: 2.24
NC(CP(=O)(O)O)C(=O)O (racemic) [(±)-2-Amino-3-phosphonopropionic acid]	inactive: 1.18
C=C(CC)C(=O)c1ccc(OCC(=O)O)c(Cl)c1Cl [Ethacrynic acid]	inactive: 1.21
CC(=O)OCC[N+](C)(C)C.[Cl-] [Acetylcholine chloride]	inactive: 1.95
CC(=O)OCC[N+](C)(C)C.[Cl-]	inactive: 0.523
COC1=C(OC)C(=O)C(CCCCCCCCCCO)=C(C)C1=O	inactive: 0.882
Cl.c1ccc(CN2CCC3(CCCc4ccccc43)CC2)cc1 [L-687,384 hydrochloride]	inactive: 3.28
Cc1nc2sccn2c(=O)c1CCN1CCC(=C(c2ccc(F)cc2)c2ccc(F)cc2)CC1	inactive: 1.8
Cc1nc2sccn2c(=O)c1CCN1CCC(=C(c2ccc(F)cc2)c2ccc(F)cc2)CC1 [Ritanserin]	active: -16.4
CO/N=C(/C(=O)NC1C(=O)N2C(C(=O)O)=C(CSc3nnnn3C)CSC12)c1csc(N)n1.Cl (stereo not given)	inactive: 2.04
NCCOB(c1ccccc1)c1ccccc1	inactive: 2.66
Cc1cnc(C(=O)N[C@H]2CCCCC/C=C\[C@@H]3C[C@@]3(C(=O)NS(=O)(=O)C3CC3)NC(=O)[C@@H]3C[C@@H](Oc4nc5ccccc5c5ccccc45)CN3C2=O)cn1 [Paritaprevir]	inactive: 4.22
CN[C@@H]1[C@H](O[C@H]2[C@H](O[C@H]3[C@H](O)[C@@H](O)[C@H](NC(=N)N)[C@@H](O)[C@@H]3NC(=N)N)O[C@@H](C)[C@]2(O)C=O)O[C@@H](CO)[C@H](O)[C@H]1O.CN[C@@H]1[C@H](O[C@H]2[C@H](O[C@H]3[C@H](O)[C@@H](O)[C@H](NC(=N)N)[C@@H](O)[C@@H]3NC(=N)N)O[C@@H](C)[C@]2(O)C=O)O[C@@H](CO)[C@H](O)[C@H]1O.O=S(=O)(O)O.O=S(=O)(O)O.O=S(=O)(O)O [Streptomycin sulfate]	inactive: 3.76
CC[C@H]1OC(=O)[C@H](C)[C@@H](O[C@H]2C[C@@](C)(OC)[C@@H](O)[C@H](C)O2)[C@H](C)[C@@H](O[C@@H]2O[C@H](C)C[C@H](N(C)C)[C@H]2O)[C@](C)(O)C[C@@H](C)[C@@H]2N[C@@H](COCCOC)O[C@H]([C@H]2C)[C@]1(C)O [Dirithromycin]	inactive: 1.99
CC[C@H]1OC(=O)[C@H](C)[C@@H](O[C@H]2C[C@@](C)(OC)[C@@H](O)[C@H](C)O2)[C@H](C)[C@@H](O[C@@H]2O[C@H](C)C[C@H](N(C)C)[C@H]2O)[C@](C)(O)C[C@@H](C)[C@@H]2N[C@@H](COCCOC)O[C@H]([C@H]2C)[C@]1(C)O	inactive: 3.41
O=P([O-])(O)C(O)(Cc1cccnc1)P(=O)(O)O.[Na+] [Risedronate Sodium]	inactive: 3.15

A second format for part of the listing above.
C#CCn1c(=O)c2c(ncn2C)n(C)c1=O [3,7-Dimethyl-1-propargylxanthine]
  cell-cell fusion (z-score): inactive: 1.38
CO/N=C(/C(=O)NC1C(=O)N2C(C(=O)O)=C(CSc3nnnn3C)CSC12)c1csc(N)n1.Cl (stereo not given)
  cell-cell fusion (z-score): inactive: 2.04
